Test results reported in PubChem BioAssay AID2685 (National Center for Advancing Translational Sciences (NCATS), 2010).
Some of the results follow. These are further read-outs of the screen, such as a control signal, another cell line or another target. No call is given for them. Most of these compounds were active or inconclusive in the main read-out, so they are no random draw. Potencies come from curve fits of mixed quality, noted in brackets.

Experiment: qHTS Assay for Lipid Storage Modulators in Drosophila S3 Cells;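 for cell number change: cells counted by Cell Tracker Red CMTPX staining in the red channel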
Details: BODIPY lipid droplet fluorescence, 18-24 h; for cell number change: measured here: cell count max response, cells fed with added oleic acid
Summary of the method: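 Laser-scanning cytometry quantifies lipid droplet accumulation (500–530 nm total intensity; droplet/cell object ratio) in oleic acid-fed (400 uM added) Drosophila S3 cells treated with a concentration series. 20 uM Triacsin C defined 100% inhibition.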

[1] = measured here: cell number channel AC50, cells fed with added oleic acid
[2] = measured here: lipid fluorescence (Fed channel) AC50, cells fed with added oleic acid

| SMILES | cell number change [%] | AC50 [1] | AC50 [2] |
| --- | --- | --- | --- |
| CC1=CC=CN2C1=NC(=O)CC2(C)C(=O)N(CC(=O)NC1CCCC1)Cc1ccccc1 (stereo not given) | 13.1 | – | – |
| O=C(c1cccs1)N(Cc1cc2ccccc2[nH]c1=O)CC1CCCO1 (stereo not given) | 0.952 | 0.291 µM [rising, full curve] | – |
| COc1cccc(OCc2cc(C(=O)N(Cc3ccccc3)CC3CC3)no2)c1 | -23.9 | – | 18.4 µM [rising, single point] |
| CC1(C)Cc2c(sc3nc(SCC(=O)NCc4ccco4)n(-c4ccccc4)c(=O)c23)CS1 | -4.66 | – | 20.6 µM [rising, partial curve] |
| COc1ccc(N2CCN(C(=O)[C@H](C)NC(=O)c3ccccc3Cl)CC2)cc1 | 18.1 | – | 0.164 µM [falling, full curve, poor fit] |
| Cc1cc(C)c(S(=O)(=O)NCCn2c(C)cc3ccccc32)c(C)c1 | 14.4 | – | 6.51 µM [falling, single point] |
| O=C(Nc1nc(-c2ccccc2)cs1)c1ccc2c(c1)S(=O)(=O)c1ccccc1C2=O | -23.6 | – | – |
| Cc1ccc(-c2nnn(CC(=O)Nc3cccc4cccnc34)n2)o1 | 38.1 | 8.2 µM [rising, partial curve, poor fit] | 6.51 µM [rising, single point] |
| Clc1ccccc1/C=C/c1nc(-c2cccnc2)no1 | 14.7 | – | 0.116 µM [rising, full curve, poor fit] |
| NC(=O)NC(CC(=O)NCCCc1ccccc1)c1ccccc1Cl (stereo not given) | -6.33 | 0.291 µM [falling, full curve, poor fit] | 0.291 µM [falling, full curve] |
| CCCNC(=O)c1ccc(Cn2cc(-c3ccc(OC)cc3)nc2C(C)N)cc1 (stereo not given) | -11.5 | – | 0.13 µM [falling, full curve, poor fit] |
| COc1ccc(Br)cc1/C=C/C(=O)Nc1ccc2ccccc2c1 | -8.46 | – | 29.1 µM [falling, single point] |
| C#CCOCCOCCOCCNc1nc(N2CCN(C(=O)CCCCCCCCCCNC(=O)Cn3cc(CCCCCN)nn3)CC2)nc(N2CCN(C(=O)CCCCCCCCCCNC(=O)[C@H](CO)n3cc(CCCSC)nn3)CC2)n1 | 9.17 | 2.06 µM [falling, single point] | 7.31 µM [falling, partial curve, poor fit] |
| Cc1ccc(/C=C/C(=O)NC(=S)Nc2ccccc2C(=O)NC2CCCCC2)cc1 | -35.6 | 18.4 µM [falling, single point] | 16.4 µM [falling, partial curve] |

Reformatted: 2 of the compounds above
Cc1ccc(-c2nnn(CC(=O)Nc3cccc4cccnc34)n2)o1
  cell number change [%]: 38.1; AC50 [1]: 8.2 µM [rising, partial curve, poor fit]; AC50 [2]: 6.51 µM [rising, single point]
Clc1ccccc1/C=C/c1nc(-c2cccnc2)no1
  cell number change [%]: 14.7; AC50 [2]: 0.116 µM [rising, full curve, poor fit]
